# Results deposited as PubChem BioAssay AID1259254 (NCATS, 2017).
# Aim: 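Genome-wide screen for genes that prevent DNA re-replication in cancer cells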 (primary screen)
# Cells: human HCT116 colorectal cancer cells
# Knock-down reagent: single siRNA against human genes
# Duration: 3 days
# Detection: 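Imaged Hoechst DNA stain sorts each cell into a cycle phase by DNA amount; per plate, G2 fraction set to 0% for non-targeting and 100% for GMNN siRNA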
# Scale: G2 robust z-score and G2 cells, % of GMNN control: higher = more G2 cells, more excess DNA replication; raw share of cells in G2: higher = larger share of cells with G2 DNA content
# Hit rule: 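Active siRNAs have a G2 robust z of 5 or more median absolute deviations over the median, which in these data means about 38% or higher of GMNN control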
# In all, the deposit lists about 59,000 reagents; shown is a random part of them. About 1,550 of them (2.6%) count as active. 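G2 share is only a proxy for re-replication; each gene was hit by three separate siRNAs, and active genes were retested.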 Raw values vary from plate to plate and are shown uncorrected. A number with no mark means an inactive call. Reagents against one gene are numbered here. The record does not give: the amount of reagent.
gene symbol,siRNA no.,G2 robust z-score,"G2 cells, % of GMNN control",raw share of cells in G2 (%)
CTTNBP2 (cortactin binding protein 2),1,0.894,9.26,7.19
CTTNBP2 (cortactin binding protein 2),2,-0.702,-1.97,2.87
CTTNBP2 (cortactin binding protein 2),3,-0.434,-0.0859,2.38
SLC4A10,1,2.06,17.5,12.9
SLC4A10,2,-0.939,-3.64,3.06
SLC4A10,3,-0.599,-1.24,3.77
CDCP2 (CUB domain containing protein 2),1,1.66,14.6,12.9
CDCP2 (CUB domain containing protein 2),2,3.46,27.3,14.7
CDCP2 (CUB domain containing protein 2),3,0.811,8.67,8.35
MEF2D (myocyte enhancer factor 2D),1,-1.14,-5.07,1.52
MEF2D (myocyte enhancer factor 2D),2,0.183,4.25,7
MEF2D (myocyte enhancer factor 2D),3,-1.38,-6.76,2.79
LINC00926 (long independently transcribed non-coding RNA 926),1,-0.435,-0.0954,3.01
LINC00926 (long independently transcribed non-coding RNA 926),2,0.286,4.98,4.78
LINC00926 (long independently transcribed non-coding RNA 926),3,0.308,5.13,5.51
ERP27 (endoplasmic reticulum protein 27),1,-0.578,-1.1,3.65
ERP27 (endoplasmic reticulum protein 27),2,4.25,32.9,13.1
ERP27 (endoplasmic reticulum protein 27),3,0.264,4.82,3.23
ACAD8 (acyl-CoA dehydrogenase family member 8),1,3.63,28.5,13.7
ACAD8 (acyl-CoA dehydrogenase family member 8),2,0.175,4.2,8.07
ACAD8 (acyl-CoA dehydrogenase family member 8),3,-0.492,-0.497,3.83
FBN2 (fibrillin 2),1,1.12,10.8,9.17
FBN2 (fibrillin 2),2,-0.681,-1.82,4.57
FBN2 (fibrillin 2),3,-0.0656,2.51,4.55
PPIAP8 (peptidylprolyl isomerase A pseudogene 8),1,-1.07,-4.59,2.41
PPIAP8 (peptidylprolyl isomerase A pseudogene 8),2,-0.571,-1.05,2.8
PPIAP8 (peptidylprolyl isomerase A pseudogene 8),3,0.716,8,7.41
ZNF416 (zinc finger protein 416),1,1.84,15.9,8.4
ZNF416 (zinc finger protein 416),2,-1.14,-5.03,3.64
ZNF416 (zinc finger protein 416),3,0.419,5.92,5.49
MSRA (methionine sulfoxide reductase A),1,1.53,13.8,7.73
MSRA (methionine sulfoxide reductase A),2,-0.597,-1.23,4.98
MSRA (methionine sulfoxide reductase A),3,3.87,30.2,17
MRPS18A (mitochondrial ribosomal protein S18A),1,0.956,9.7,8.25
MRPS18A (mitochondrial ribosomal protein S18A),2,6.27 (active),47.1,23.7
MRPS18A (mitochondrial ribosomal protein S18A),3,3.55,27.9,12.1
RIPPLY3 (ripply transcriptional repressor 3),1,1.25,11.8,7.82
RIPPLY3 (ripply transcriptional repressor 3),2,0.723,8.05,7.66
RIPPLY3 (ripply transcriptional repressor 3),3,0.0452,3.29,4.28
RHOT1 (ras homolog family member T1),1,2.54,20.8,15.6
RHOT1 (ras homolog family member T1),2,-1.11,-4.83,2.71
RHOT1 (ras homolog family member T1),3,2.44,20.1,12.7
C18orf32 (chromosome 18 open reading frame 32),1,-0.854,-3.04,2.45
C18orf32 (chromosome 18 open reading frame 32),2,-0.615,-1.36,2.9
C18orf32 (chromosome 18 open reading frame 32),3,-0.807,-2.71,2.2
DLX6-AS1 (DLX6 antisense RNA 1),1,-0.344,0.545,3.84
DLX6-AS1 (DLX6 antisense RNA 1),2,0.605,7.22,5.84
DLX6-AS1 (DLX6 antisense RNA 1),3,0.0324,3.2,4.24
CD63 (CD63 molecule),1,1.18,11.2,10.6
CD63 (CD63 molecule),2,1,10,7.75
CD63 (CD63 molecule),3,-0.787,-2.57,2.52
TINAG (tubulointerstitial nephritis antigen),1,0.84,8.88,10.2
TINAG (tubulointerstitial nephritis antigen),2,-0.566,-1.02,3.66
TINAG (tubulointerstitial nephritis antigen),3,1.58,14.1,8.87
TAF1L (TATA-box binding protein associated factor 1 like),1,-1.95,-10.8,2.24
TAF1L (TATA-box binding protein associated factor 1 like),2,-1.36,-6.63,2.78
TAF1L (TATA-box binding protein associated factor 1 like),3,-0.799,-2.65,2.83
DHRS9 (dehydrogenase/reductase 9),1,0.426,5.96,8.83
DHRS9 (dehydrogenase/reductase 9),2,-0.826,-2.84,4.46
DHRS9 (dehydrogenase/reductase 9),3,-0.238,1.29,4.26
LOC646999 (akirin 1 pseudogene),1,0.162,4.11,4.75
LOC646999 (akirin 1 pseudogene),2,-0.623,-1.42,2.59
LOC646999 (akirin 1 pseudogene),3,0.631,7.4,6.57
THAP12P1 (THAP domain containing 12 pseudogene 1),1,5.3 (active),40.2,19.4
THAP12P1 (THAP domain containing 12 pseudogene 1),2,1.26,11.8,7.14
THAP12P1 (THAP domain containing 12 pseudogene 1),3,2.77,22.5,11.9
TNR (tenascin R),1,2.19,18.4,11.1
TNR (tenascin R),2,-0.33,0.644,5.87
TNR (tenascin R),3,-0.697,-1.94,3.84

Copied from the entries so far (8 entries):
gene symbol,siRNA no.,G2 robust z-score,"G2 cells, % of GMNN control",raw share of cells in G2 (%)
RIPPLY3 (ripply transcriptional repressor 3),2,0.723,8.05,7.66
RIPPLY3 (ripply transcriptional repressor 3),3,0.0452,3.29,4.28
RHOT1 (ras homolog family member T1),1,2.54,20.8,15.6
RHOT1 (ras homolog family member T1),2,-1.11,-4.83,2.71
RHOT1 (ras homolog family member T1),3,2.44,20.1,12.7
C18orf32 (chromosome 18 open reading frame 32),1,-0.854,-3.04,2.45
C18orf32 (chromosome 18 open reading frame 32),2,-0.615,-1.36,2.9
C18orf32 (chromosome 18 open reading frame 32),3,-0.807,-2.71,2.2
